Here are results for two molecules from PMC9277809.

For assay [1], the target named is T1, NRR (rice (Oryza sativa L.)) (UniProt Q5ZEF1).
T1 sequence: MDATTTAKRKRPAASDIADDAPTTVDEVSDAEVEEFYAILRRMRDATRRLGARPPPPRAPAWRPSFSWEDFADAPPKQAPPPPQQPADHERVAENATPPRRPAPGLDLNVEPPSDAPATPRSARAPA
Kind of assay: two-hybrid; library screen: AH109 carrying the pGBKT7-bait mated with Y187 carrying the pGADT7-UbE3 library (1499 E3 ORFs) at 30 °C for 20-24 h; selection on SD-Leu-Trp-His-Ade; positive clones identified by PCR and sequencing.

Assay [2] addresses T1, NRR (rice (Oryza sativa L.)). The assay can be described thus: two-hybrid; confirmation of single bait-E3 pairs in yeast; growth on DDO (SD-Leu-Trp) and QDO (SD-Leu-Trp-His-Ade); called yeast co-transformation assay for OsPAL1-OsFBK16.

Results are given in words; binding and its absence hold for the method and conditions named. Some results given as binding are weak or reduced against the parent protein; the word gives no strength.

B1: OsNPR3 (protein, UniProt Q75HA6 1-589)
chain: METSTISFSSSSPPSPPPPQPAPGDIDAVSLGRLSRNLENLLDPAFLNCADAEIVLASGGGDPGGGAVVGVHRCILAARSRFFYDHFSSAPAPAPATAGDKPQLDLDGLVPGGRHIGRDALVAVLSYLYTGRLRSAPPEAAACLDDGCSHDACRPAIDFVVESTYAASGFQISELVSLFQRRLSDFVNKALAEDILPILVVASTCHLPELLNQCIQRVANSNLDNRYLEKRLPDDLYAKLKEFRVPDEPHSGILDPEHEKRVRNIHKALDSDDVDLVGMLLKESPVTLDDAFAIHYAAAYCEPKVLAELLKLESANVNLKNSSGYTPLHMACMRREPDIIVSLIEKGASVLERTQDGRDALTICKRLTREKDRNEKSEKCKERSKAYLCIGVLQQEIKRRPQILEDQMSAEESIATPLLVDNFHMRLLNLENRVAFARIFFPSEAKLVMRIAQADSTQEFAGLTSANFSKLKEVDLNETPTMQNRRLRERLDALTKTVELGRRYFPHCSEVLDKFLNEESTDLILLESGTAEDQQTKRMRFSELREDVRKAFTKDKAAGAAISSSTSASSSPRYETKLRPGNKKGKLSR
With B1, the binding entry in assay [1] and in assay [2] was “binds” throughout.

B2: OsNPR2 (protein, UniProt Q0JJ01 1-635)
chain: MPARSAVVVIAMEPSSSITIASSSSYLSNGSSPCSVSLAPPGAGAVAAQAAPVAAGEGGGGGGGGGGGGSSSVEVVSLNRLSANLERLLLDSDLDCSDADVDVADGGPPVPVHRCILAARSTFFYNLFAARGRGGDGAAGGGGGGGGGGGERTGGRPRYKMEELVPGGRVGRDAFLSLLGYLYTGKLRPAPDDVVSCADPMCPHDSCPPAIRFNVEQMYAAWAFKITELISLFQRRLLNFVDKTLVEDVLPILQVAFHSELTPVLEKCIRRIARSNLDNVSLDKELPPEVAVQIKEIRQKSQPNEGDTVISDPVHEKRVRRIHRALDSDDVELVKLLLNESEITLDDANALHYAAAYCDSKVVSELLDLRLANLNLKNSRGYTALHLAAMRREPAIIMCLLNKGAAVSQLTADGQSAMSICRRLTRMKDYNTKMEQGQESNKDRLCIDILDREMIRKPMAVEDSVTSPLLADDLHMKLLYLENRVAFARLFFPAEAKVAMQIAQADTTPEFGIVPAASTSGKLKEVDLNETPVTQNKRLRSRVDALMKTVELGRRYFPNCSQVLDKFLEDDLPDSPDALDLQNGTSDEQNVKRMRFCELKEDVRKAFSKDRADNSMFSILSSSSSSSPPPKVAKK
With B2, the binding entry in assay [1] and in assay [2] was “binds” each time.
